Assay results taken from the supplement of paper PMC8728848.
This is one part of the list.

What was measured:
Experiment in all cases: glycan array binding signal (z-score within array); higher = stronger binding
Conditions in all cases: glycan notation: IUPAC condensed, linker removed
[1] = biological target: Gal(b1-4)GlcNAc(b1-3)Gal(b1-4)GlcNAc(b1-2)Man(a1-3)[Gal(b1-4)GlcNAc(b1-3)Gal(b1-4)GlcNAc(b1-2)Man(a1-6)]Man(b1-4)GlcNAc(b1-4)[Fuc(a1-6)]GlcNAc
Procedure, shortened: (§1)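 Columns mapping to the same glycan were averaged after glycan names were converted to IUPAC-condensed notation. The data come from 3228 arrays in the Consortium for Functional Glycomics database, limited to those with an available protein sequence. Binding is reported as a within-array Z-score averaged across arrays of one protein sequence and across linkers.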

[2] = biological target: Gal(b1-4)GlcNAc(b1-3)Gal(b1-4)GlcNAc(b1-2)[Gal(b1-4)GlcNAc(b1-3)Gal(b1-4)GlcNAc(b1-6)]Man(a1-6)[Gal(b1-4)GlcNAc(b1-3)Gal(b1-4)GlcNAc(b1-2)Man(a1-3)]Man(b1-4)GlcNAc(b1-4)GlcNAc
Procedure, shortened: as §1

[3] = biological target: Gal(b1-4)GlcNAc(b1-3)Gal(b1-4)GlcNAc(b1-2)[Gal(b1-4)GlcNAc(b1-3)Gal(b1-4)GlcNAc(b1-6)]Man(a1-6)[Gal(b1-4)GlcNAc(b1-3)Gal(b1-4)GlcNAc(b1-2)Man(a1-3)]Man(b1-4)GlcNAc(b1-4)[Fuc(a1-6)]GlcNAc
Procedure, shortened: as §1

[4] = biological target: Gal(b1-4)GlcNAc(b1-3)Gal(b1-4)GlcNAc(b1-3)Gal(b1-4)GlcNAc
Procedure, shortened: as §1

[5] = biological target: Gal(b1-4)GlcNAc(b1-3)Gal(b1-4)GlcNAc(b1-3)Gal(b1-4)GlcNAc(b1-2)Man(a1-3)[Gal(b1-4)GlcNAc(b1-3)Gal(b1-4)GlcNAc(b1-3)Gal(b1-4)GlcNAc(b1-2)Man(a1-6)]Man(b1-4)GlcNAc(b1-4)GlcNAc
Procedure, shortened: as §1

[6] = biological target: Gal(b1-4)GlcNAc(b1-3)Gal(b1-4)GlcNAc(b1-3)Gal(b1-4)GlcNAc(b1-2)Man(a1-3)[Gal(b1-4)GlcNAc(b1-3)Gal(b1-4)GlcNAc(b1-3)Gal(b1-4)GlcNAc(b1-2)Man(a1-6)]Man(b1-4)GlcNAc(b1-4)[Fuc(a1-6)]GlcNAc
Procedure, shortened: as §1

[7] = biological target: Gal(b1-4)GlcNAc(b1-3)Gal(b1-4)GlcNAc(b1-3)Gal(b1-4)GlcNAc(b1-2)[Gal(b1-4)GlcNAc(b1-3)Gal(b1-4)GlcNAc(b1-3)Gal(b1-4)GlcNAc(b1-6)]Man(a1-6)[Gal(b1-4)GlcNAc(b1-3)Gal(b1-4)GlcNAc(b1-3)Gal(b1-4)GlcNAc(b1-2)Man(a1-3)]Man(b1-4)GlcNAc(b1-4)[Fuc(a1-6)]GlcNAc
Procedure, shortened: as §1

[8] = biological target: Gal(b1-4)GlcNAc(b1-3)Gal(b1-4)GlcNAc(b1-3)Gal(b1-4)GlcNAc(b1-3)Gal(b1-4)GlcNAc(b1-2)Man(a1-3)[Gal(b1-4)GlcNAc(b1-3)Gal(b1-4)GlcNAc(b1-3)Gal(b1-4)GlcNAc(b1-3)Gal(b1-4)GlcNAc(b1-2)Man(a1-6)]Man(b1-4)GlcNAc(b1-4)GlcNAc
Procedure, shortened: as §1

[9] = biological target: Gal(b1-4)GlcNAc(b1-3)Gal(b1-4)GlcNAc(b1-3)Gal(b1-4)GlcNAc(b1-3)Gal(b1-4)GlcNAc(b1-2)Man(a1-3)[Gal(b1-4)GlcNAc(b1-3)Gal(b1-4)GlcNAc(b1-3)Gal(b1-4)GlcNAc(b1-3)Gal(b1-4)GlcNAc(b1-2)Man(a1-6)]Man(b1-4)GlcNAc(b1-4)[Fuc(a1-6)]GlcNAc
Procedure, shortened: as §1

[10] = biological target: Gal(b1-4)GlcNAc(b1-3)Gal(b1-4)GlcNAc(b1-3)Gal(b1-4)GlcNAc(b1-3)Gal(b1-4)GlcNAc(b1-2)[Gal(b1-4)GlcNAc(b1-3)Gal(b1-4)GlcNAc(b1-3)Gal(b1-4)GlcNAc(b1-3)Gal(b1-4)GlcNAc(b1-6)]Man(a1-6)[Gal(b1-4)GlcNAc(b1-3)Gal(b1-4)GlcNAc(b1-3)Gal(b1-4)GlcNAc(b1-3)Gal(b1-4)GlcNAc(b1-2)Man(a1-3)]Man(b1-4)GlcNAc(b1-4)[Fuc(a1-6)]GlcNAc
Procedure, shortened: as §1

[11] = biological target: Gal(b1-4)GlcNAc(b1-3)Gal(b1-4)GlcNAc(b1-3)Gal(b1-4)GlcNAc(b1-3)Gal(b1-4)GlcNAc(b1-3)Gal(b1-4)GlcNAc(b1-2)Man(a1-3)[Gal(b1-4)GlcNAc(b1-3)Gal(b1-4)GlcNAc(b1-3)Gal(b1-4)GlcNAc(b1-3)Gal(b1-4)GlcNAc(b1-3)Gal(b1-4)GlcNAc(b1-2)Man(a1-6)]Man(b1-4)GlcNAc(b1-4)GlcNAc
Procedure, shortened: as §1

[12] = biological target: Gal(b1-4)GlcNAc(b1-3)Gal(b1-4)GlcNAc(b1-3)Gal(b1-4)GlcNAc(b1-3)Gal(b1-4)GlcNAc(b1-3)Gal(b1-4)GlcNAc(b1-2)Man(a1-3)[Gal(b1-4)GlcNAc(b1-3)Gal(b1-4)GlcNAc(b1-3)Gal(b1-4)GlcNAc(b1-3)Gal(b1-4)GlcNAc(b1-3)Gal(b1-4)GlcNAc(b1-2)Man(a1-6)]Man(b1-4)GlcNAc(b1-4)[Fuc(a1-6)]GlcNAc
Procedure, shortened: as §1

[13] = biological target: Gal(b1-4)GlcNAc(b1-3)Gal(b1-4)GlcNAc(b1-3)Gal(b1-4)GlcNAc(b1-3)Gal(b1-4)GlcNAc(b1-3)Gal(b1-4)GlcNAc(b1-2)[Gal(b1-4)GlcNAc(b1-3)Gal(b1-4)GlcNAc(b1-3)Gal(b1-4)GlcNAc(b1-3)Gal(b1-4)GlcNAc(b1-3)Gal(b1-4)GlcNAc(b1-6)]Man(a1-6)[Gal(b1-4)GlcNAc(b1-3)Gal(b1-4)GlcNAc(b1-3)Gal(b1-4)GlcNAc(b1-3)Gal(b1-4)GlcNAc(b1-3)Gal(b1-4)GlcNAc(b1-2)Man(a1-3)]Man(b1-4)GlcNAc(b1-4)[Fuc(a1-6)]GlcNAc
Procedure, shortened: as §1

[14] = biological target: Gal(b1-4)GlcNAc(b1-3)Gal(b1-4)GlcNAc(b1-3)Gal(b1-4)GlcNAc(b1-3)Gal(b1-4)GlcNAc(b1-3)Gal(b1-4)GlcNAc(b1-3)Gal(b1-4)GlcNAc(b1-2)Man(a1-3)[Gal(b1-4)GlcNAc(b1-3)Gal(b1-4)GlcNAc(b1-3)Gal(b1-4)GlcNAc(b1-3)Gal(b1-4)GlcNAc(b1-3)Gal(b1-4)GlcNAc(b1-3)Gal(b1-4)GlcNAc(b1-2)Man(a1-6)]Man(b1-4)GlcNAc(b1-4)GlcNAc
Procedure, shortened: as §1

[15] = biological target: Gal(b1-4)GlcNAc(b1-3)Gal(b1-4)GlcNAc(b1-3)GalNAc
Procedure, shortened: as §1

[16] = biological target: Gal(b1-4)GlcNAc(b1-3)Gal(b1-4)GlcNAc(b1-3)[Gal(b1-4)GlcNAc(b1-3)Gal(b1-4)GlcNAc(b1-6)]GalNAc
Procedure, shortened: as §1

[17] = biological target: Gal(b1-4)GlcNAc(b1-3)Gal(b1-4)GlcNAc(b1-6)[Gal(b1-3)]GalNAc
Procedure, shortened: as §1

[18] = biological target: Gal(b1-4)GlcNAc(b1-3)Gal(b1-4)[Fuc(a1-3)]GlcNAc(b1-3)Gal(b1-4)[Fuc(a1-3)]GlcNAc
Procedure, shortened: as §1

[19] = biological target: Gal(b1-4)GlcNAc(b1-3)GalNAc
Procedure, shortened: as §1

[20] = biological target: Gal(b1-4)GlcNAc(b1-3)[Fuc(a1-3)GlcNAc(b1-6)]Gal(b1-4)Glc
Procedure, shortened: as §1

[21] = biological target: Gal(b1-4)GlcNAc(b1-3)[Gal(b1-4)GlcNAc(b1-6)]Gal(b1-4)GlcNAc
Procedure, shortened: as §1

[22] = biological target: Gal(b1-4)GlcNAc(b1-3)[GlcNAc(b1-6)]Gal(b1-4)GlcNAc
Procedure, shortened: as §1

B1: XTP3-B-MRH2 (Homo sapiens), Q96DZ1 (protein)
chain: EFLSGSYCFRGGVGWWKYEFCYGKHVHQYHEDKDSGKTSVVVGTWNQEEHIEWAKKNTARAYHLQDDGTQTVRMVSHFYGNGDICDITDKPRQVTVKLKCKESDSPHAVTVYMLEPHSCQYILGVESPVICKILDTA
With B1 the “glycan array binding signal (z-score)” value [1] was 1.88, the “glycan array binding signal (z-score)” value [2] was 1.73 and the “glycan array binding signal (z-score)” value [3] was 1.2. The “glycan array binding signal (z-score)” value [4] was 2.01, the “glycan array binding signal (z-score)” value [5] was 0.893 and the “glycan array binding signal (z-score)” value [6] was -0.168. The “glycan array binding signal (z-score)” value [7] was -0.365, the “glycan array binding signal (z-score)” value [8] was -0.993 and the “glycan array binding signal (z-score)” value [9] was 1.25. For the same binder, the “glycan array binding signal (z-score)” value [10] was -0.003, the “glycan array binding signal (z-score)” value [11] was 1.58 and the “glycan array binding signal (z-score)” value [12] was 0.764. The “glycan array binding signal (z-score)” value [13] was -0.908, the “glycan array binding signal (z-score)” value [14] was -0.498 and the “glycan array binding signal (z-score)” value [15] was 0.3. For the same binder, the “glycan array binding signal (z-score)” value [16] was -0.807, the “glycan array binding signal (z-score)” value [17] was -0.431 and the “glycan array binding signal (z-score)” value [18] was 1.42. For the same binder, the “glycan array binding signal (z-score)” value [19] was -1.45, the “glycan array binding signal (z-score)” value [20] was -0.78 and the “glycan array binding signal (z-score)” value [21] was -0.399. The “glycan array binding signal (z-score)” value [22] was 0.199.
